# Like-named read-outs stand apart in the source and are kept apart here. At least one structure is not confirmed: it was looked up by name or label, or the drawing left a doubt.
# System: human coronary artery smooth muscle cells (hCASMC)
# Assay: BrdU incorporation proliferation assay in hCASMC
# Details: 72 h; for Ki: read-out: inhibition constant (Ki) for hCASMC proliferation
structure (smiles),measurement,setting,value
C=C[C@@]1(C)CC(=O)[C@]2(O)[C@@]3(C)[C@@H](O)CCC(C)(C)[C@@H]3[C@H](O)[C@H](OC(C)=O)[C@@]2(C)O1 [forskolin],inhibition of serum-induced hCASMC proliferation,"5 μM, p<0.001",significant inhibition
same,Ki,MRP4 siRNA transfected hCASMC,0.11 ± 0.01 µM
same,Ki,scramble siRNA transfected hCASMC,0.79 ± 0.56 µM

# Source: patent US8354388B2, “Inhibitors of MRP4 for the treatment of vascular disorders” (INSERM (Institut National de la Sante et de la Recherche …, priority 2007, dated 2013)
